For one substance, binding results are on record in article PMC4978974.

Protein sequences, listed by entry. Tags and fused reporters are not part of them. Residues count along the entry.
UniProt P10145, residues 21-99: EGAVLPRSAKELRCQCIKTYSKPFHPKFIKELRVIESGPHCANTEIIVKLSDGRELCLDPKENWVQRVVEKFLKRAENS
UniProt P02942: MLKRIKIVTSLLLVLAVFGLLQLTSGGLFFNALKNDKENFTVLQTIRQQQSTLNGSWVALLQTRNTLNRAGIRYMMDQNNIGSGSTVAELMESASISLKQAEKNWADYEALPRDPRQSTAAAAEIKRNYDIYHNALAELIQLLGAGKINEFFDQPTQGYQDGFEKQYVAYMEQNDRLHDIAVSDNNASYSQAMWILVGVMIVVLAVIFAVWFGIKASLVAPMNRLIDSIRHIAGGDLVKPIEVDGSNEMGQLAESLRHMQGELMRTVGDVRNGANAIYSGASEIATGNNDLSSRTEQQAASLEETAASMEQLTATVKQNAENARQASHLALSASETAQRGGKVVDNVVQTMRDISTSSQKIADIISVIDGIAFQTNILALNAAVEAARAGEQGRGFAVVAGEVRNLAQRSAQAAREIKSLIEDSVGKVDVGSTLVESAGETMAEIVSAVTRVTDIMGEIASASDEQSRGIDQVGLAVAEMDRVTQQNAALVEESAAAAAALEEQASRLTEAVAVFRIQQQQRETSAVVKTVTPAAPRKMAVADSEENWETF

No constants are given. Whether binding was seen depends on the method and setting. In cells and extracts the contact can be indirect. Some results given as binding are weak or reduced against the parent protein; the word gives no strength.

The target in this assay is recombinant human interleukin-8 (human) (UniProt P10145). The experiment in a line: co-IP; 250 μg protein of E. coli lysate (1% Triton X-100, protease inhibitors) incubated with rhIL-8 (0.5 μg) and mouse monoclonal anti-human IL-8 antibody (1 μg) at 4 °C overnight; precipitated with Protein A/G resin; Western blot for Tsr and IL-8; only the target purified.

Take “Tsr chemoreceptor (methyl-accepting chemotaxis protein) of E. coli (from UniProt P02942 1-551)”: the binding result is “binds”.
